# Out of some 340,000 compounds screened, about 170 (0.05%) were called active. Inconclusive means that the source gave no clear call. Such entries were picked first, then a sample of the others. Calls come from the whole dose curve; as a rule, active = well fitted inhibition curve with a large enough effect in the signal ratio, with a control signal flat (not every such curve was filed as active); inconclusive = small, poorly fitted or top-dose-only effect, or effect the other way, or a change in a side signal; inactive = flat fitted curve, though single readings scatter; the % refers to the signal ratio. Potencies beside an inconclusive call are fits to weak or partial responses and may not hold up.
# Assay: qHTS Assay to Find Inhibitors of Chronic Active B-Cell Receptor Signaling;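 for activity change, negative = inhibition: plate controls were basal doxycycline-induced cells for no effect and cells given 10 µM MG132 for full effect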
# Details: ABC-DLBCL IkBa-CBG/CBR reporter, luminescence ratio (green luciferase fused to IkBa over red control in TMD8 lymphoma cells), 4 h; activity change, negative = inhibition: at 46.1 µM (top of the series)
# Outline: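 Compounds up to 46 uM were incubated four hours with TMD8 cells whose green CBG68 luciferase is fused to IkappaBalpha; red CBR luminescence normalised the signal, and concentration-effect curves were fitted to fusion, red and ratio data.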
# Potency is the fitted concentration of half-maximal effect.
Structure (SMILES),Potency,"activity change, negative = inhibition"
O=C(Nc1nnc(-c2ccc(Cl)s2)o1)C1CC1,"inconclusive: 31.6 µM [cytotoxic, single point]",–
C=C(C)CNC(=S)N/N=C/c1ccc(NC(C)=O)cc1,–,inactive: 2.07%
CCOC(=O)C1=C(C)OC(N)=C(C#N)C1c1cc(C)sc1C (stereo not drawn),"inconclusive: 20 µM [falling, partial curve, poor fit]",–
CCOc1ccc(/C=C/c2nc(C#N)c(NCCCN(C)C)o2)cc1,–,inactive: 3.88%
Cc1ccc(S(=O)(=O)N(C)CC(=O)N2CCN(c3ccccn3)CC2)cc1,–,inconclusive: 0.774%
CC/C(=N/Nc1ccc(Cl)cc1)c1cnnc(SC)n1,–,inconclusive: 1.99%
CCN(Cc1nc(-c2ccccc2)no1)C(=O)c1ccc2c(c1)OCO2,–,inconclusive: -93.2%
O=C(CNC(=O)c1ccccc1)NCC1COc2ccccc2O1 (stereo not drawn),–,inconclusive: 2.07%
COc1cc([N+](=O)[O-])cc2sc(NC(=O)C(C)(C)C)nc12,"inconclusive: 15.8 µM [rising, partial curve, poor fit]",–
COc1ccc2c(c1)O/C(=C\c1ccccc1C)C2=O,–,inconclusive: 1.7%
C=CCN1C(=O)C(Cc2cccc(Cl)c2)SC1=Nc1ccc(C(=O)O)cc1 (stereo not drawn),–,inconclusive: -18.8%
Cc1nc(Nc2ccccc2)sc1-c1ccccc1,"inconclusive: 20.6 µM [falling, single point]",–
C=CCNc1nc(-c2sc(NC(=O)CC)nc2C)cs1,"inconclusive: 18.4 µM [falling, single point]",–
CC(C)CN1CCC(=O)N([C@H](CO)c2ccccc2)CC1,–,inconclusive: 11.4%
O=C(CSc1nc2nn(-c3ccccc3)c(=O)c-2c2n1CCCCC2)Nc1cccc(F)c1,–,inconclusive: 8.27%
O=C(CN1C(=O)C2CCCCC2C1=O)OCc1nnc(-c2ccccc2)o1 (stereo not drawn),–,inconclusive: 5.15%
Cc1cccc(-n2c(N)cc(=O)nc2SCC(=O)Nc2nnc(CC(C)C)s2)c1,–,inconclusive: 10.1%
O=c1cc[nH]c2c(Cl)cccc12,–,inconclusive: 6.39%
O=C(/C=C/c1ccc([N+](=O)[O-])cc1)NCCSc1ccccc1,–,inactive: 11.7%
O=c1c2cc(N3CCOCC3)ccc2[nH]c(=S)n1CC1CCCO1 (stereo not drawn),–,inconclusive: 6.81%
COc1ccccc1-c1nnc(C2CCN(S(=O)(=O)c3cccc([N+](=O)[O-])c3)CC2)o1,–,inactive: 6.5%
CC(Oc1ccccc1)C(=O)Nc1nc(-c2ccccn2)cs1 (stereo not drawn),"inconclusive: 16.4 µM [falling, single point]",–
O=C(Cn1cc(C(=O)c2cccs2)c2ccccc21)NCc1cccs1,–,inconclusive: 0.196%
COc1ccc(CCNc2nc(-c3ccc(O)cc3)cs2)cc1OC,–,inconclusive: -3.02%
Cc1cccc(OCc2nc(C#N)c(N3CCCC3)o2)c1,–,inactive: 8.14%
CCC(C)N(C(=O)CCC(=O)Nc1cc(C)on1)C(C(=O)NC(C)(C)C)c1ccccc1Cl (stereo not drawn),–,inactive: 10.7%
COc1ccc(N(CC(=O)NCCSc2ccccc2)S(=O)(=O)c2ccccc2)cc1OC,–,inconclusive: -3.31%

# Molecules from the list above that have an NH in an aromatic ring, in the order listed:
Structure (SMILES),Potency,"activity change, negative = inhibition"
O=c1cc[nH]c2c(Cl)cccc12,–,inconclusive: 6.39%
O=c1c2cc(N3CCOCC3)ccc2[nH]c(=S)n1CC1CCCO1 (stereo not drawn),–,inconclusive: 6.81%

# Looked up by structure from the list above (two):
Structure (SMILES),Potency,"activity change, negative = inhibition"
O=C(Cn1cc(C(=O)c2cccs2)c2ccccc21)NCc1cccs1,–,inconclusive: 0.196%
C=CCN1C(=O)C(Cc2cccc(Cl)c2)SC1=Nc1ccc(C(=O)O)cc1 (stereo not drawn),–,inconclusive: -18.8%

# Additional entries:

Structure (SMILES),Potency,"activity change, negative = inhibition"
Cc1cc(/C=C(\C#N)C(=O)N2CCCCC2)cc(C)c1O,–,inconclusive: -11.3%
CCOC(=O)N1CCN(C(=O)c2cc3cc(OC)c(OC)cc3[nH]2)CC1,–,inactive: -10.1%
O=C(NCc1cccs1)c1ccncc1,–,inconclusive: -7.43%
Cc1cc(OCCN2CCOCC2)ccc1[N+](=O)[O-],–,inactive: 4.21%
COC(=O)c1ccc(-n2nnnc2SCC(=O)Nc2ccccc2F)cc1,–,inconclusive: -18%
O=C(CSc1ccc(-c2nc3ccccc3[nH]2)cn1)N1CCN(C(=O)c2ccco2)CC1,–,inconclusive: 3.18%
CCOC(=O)CSC1=C(C#N)C(c2ccccc2C)C2=C(CCCC2=O)N1 (stereo not drawn),–,inconclusive: 9.83%
Cc1ccc(NC(=O)c2ccc3c(c2)nnn3C)cc1,–,inactive: 2%
C=CCN1C(=O)/C(=C/C=C2/N(CC)c3ccc(S(=O)(=O)N(C)C)cc3N2CC)SC1=S,–,inactive: 1.92%
Clc1ccc(Nc2nc3ccccc3n3nnnc23)cc1,"inconclusive: 16.4 µM [falling, partial curve, poor fit]",–
Cc1ccc2oc(C(Cl)(Cl)Cl)cc(=O)c2c1,active: 22.4 µM,–
COC(=O)c1ccc(-n2c(/C=C/c3cc(OC)c(OC)c(OC)c3)nc3cc(Cl)ccc3c2=O)cc1,"inconclusive: 1.26 µM [falling, partial curve, poor fit]",–
COCCn1c(C)cc(/C=C(\C#N)C(=O)OC(C)C(=O)Nc2ccc(NC(C)=O)cc2)c1C (stereo not drawn),–,inactive: -12.5%
CN1CCN(Cc2nc3ccccc3c(=O)n2Cc2nc(-c3ccc4ccccc4c3)cs2)CC1,–,inconclusive: 3.75%
CCCCCOC(=O)CSc1nnc(-c2ccccc2)c(=O)[nH]1,–,inconclusive: 2%
COC(=O)c1cc2c(N)c(C(=O)c3ccc(Cl)cc3)sc2nc1C(OC)OC,"inconclusive: 0.891 µM [activator, full curve]",–
COc1cc(C(=O)NCc2ncccc2C)ccc1OC1CCN(C(C)=O)CC1,–,inactive: -4.15%
O=C(NNc1c([N+](=O)[O-])cc(C(F)(F)F)cc1[N+](=O)[O-])c1ccco1,–,inactive: 16.8%
Cc1nnc(NC(=O)C2CC(=O)N(C(C)c3ccccc3)C2)s1 (stereo not drawn),–,inactive: -13.7%
C/C(=N\NC(=O)COc1ccccc1-c1ccccc1)c1ccccn1,"inconclusive: 35.5 µM [falling, single point]",–
O=C1C(Cl)=C(N2CCCCC2)C(=O)C(Cl)=C1c1cnc(N2CCCCC2)s1,–,inactive: 13.6%
O=C(CSc1nnc(CNC(=O)c2ccccc2F)o1)Nc1ccc2c(c1)OCCO2,–,inconclusive: -0.692%
CCN(CC)c1ccc(/C=C(/C#N)c2nc3ccc(C)cc3[nH]2)c(OC(C)C)c1,"inconclusive: 2.51 µM [rising, partial curve, poor fit]",–
CCCOC(=O)c1[nH]c2c(c1C)C(=O)CC(c1cc(OC)c(OC)c(OC)c1)C2 (stereo not drawn),–,inconclusive: -2.02%
CC(=C/c1ccccc1)/C=N/NC(=O)c1ccc2nc[nH]c2c1,–,inactive: 0.449%
O=C(NNC(=O)c1cccs1)c1ccncc1,"inconclusive: 17.8 µM [falling, partial curve, poor fit]",–

# Source: PubChem BioAssay AID493014 (National Center for Advancing Translational Sciences (NCATS), 2011)
